Where a chain is given by its changes, count along the chain named. Results are given in words; binding and its absence hold for the method and conditions named. Binding calls can cover weak binding; strength is not graded here.
B1: E18 (designed binder)
chain: EVVAATPTSLLISWRHPHFPTRYYRITYGETGGNSPVQEFTVPLQPPTATISGLKPGVDYTITGYAVTVERNGRELNTPISINYRT
B2: E19 (designed binder)
chain: B1 chain with E75H, N77M
B3: E29 (designed binder)
chain: B1 chain with E75V, N77M

Each binder was assayed against Flk-1/EpoR chimera on cells (pmKE2) (mouse; human) (assay: flow cytometry on CHO-Flk, His6-tagged protein, anti-His6 and labeled anti-mouse antibody).

binding, binds:
B1
B2
B3
